Holding throughout (assay): minimum inhibitory concentration
Compound in one experiment: CC(=O)NC[C@H]1CN(c2ccc(N3CCOCC3)c(F)c2)C(=O)O1 [linezolid]
Compound in a further experiment: CCC[C@@H]1C[C@@H](C(=O)N[C@@H]([C@H]2O[C@H](SC)[C@H](O)[C@@H](O)[C@H]2O)[C@H](C)Cl)N(C)C1 [clindamycin]
Compound in a further experiment: CCc1c(Cl)c(O)c(Cl)c(O)c1C(=O)O[C@H]1[C@H](O)[C@H](OC)[C@H](OC/C2=C\C=C\C[C@H](O)/C(C)=C/[C@H](CC)[C@@H](O[C@@H]3OC(C)(C)[C@@H](OC(=O)C(C)C)[C@H](O)[C@@H]3O)/C(C)=C/C(C)=C/C[C@@H]([C@@H](C)O)OC2=O)O[C@@H]1C [fidaxomicin]
Compound in a further experiment: CN(C)c1cc(NC(=O)CNC(C)(C)C)c(O)c2c1C[C@H]1C[C@H]3[C@H](N(C)C)C(O)=C(C(N)=O)C(=O)[C@@]3(O)C(O)=C1C2=O [tigecycline]
Compound in the next experiment: CN[C@H](CC(C)C)C(=O)N[C@H]1C(=O)N[C@@H](CC(N)=O)C(=O)N[C@H]2C(=O)N[C@H]3C(=O)N[C@H](C(=O)N[C@H](C(=O)O)c4cc(O)cc(O)c4-c4cc3ccc4O)[C@H](O)c3ccc(c(Cl)c3)Oc3cc2cc(c3O[C@@H]2O[C@H](CO)[C@@H](O)[C@H](O)[C@H]2O[C@H]2C[C@](C)(N)[C@H](O)[C@H](C)O2)Oc2ccc(cc2Cl)[C@H]1O [vancomycin]
Compound in the next experiment: CO[C@H]1/C=C/O[C@@]2(C)Oc3c(C)c(O)c4c(O)c(c(/C=N/N5CCN(C)CC5)c(O)c4c3C2=O)NC(=O)/C(C)=C\C=C\[C@H](C)[C@H](O)[C@@H](C)[C@@H](O)[C@@H](C)[C@H](OC(C)=O)[C@@H]1C [rifampicin]
Compound in the next experiment: C[C@@H](O)[C@H]1C(=O)N2C(C(=O)O)=C(SCCNC=N)C[C@H]12 [imipenem]
Compound in a further experiment: C[C@@H](O)[C@H]1C(=O)N2C(C(=O)O)=C(S[C@@H]3CN[C@H](C(=O)N(C)C)C3)[C@H](C)[C@H]12 [meropenem]
Compound in the next experiment: Cc1ncc([N+](=O)[O-])n1CCO [metronidazole]

A value given as a limit tells only on which side of the number the result lay.

Regarding “Clostridioides difficile PCR ribotype 161 isolate #223 (European region: East, country: Romania, isolate source: Human, ribotype: 161)”, the minimum inhibitory concentration was 2 µg/mL with linezolid; 16 µg/mL with clindamycin; 0.03 µg/mL in the experiment with fidaxomicin; 0.06 µg/mL with tigecycline; 0.5 µg/mL with vancomycin; < 0.001 µg/mL with rifampicin. The minimum inhibitory concentration with imipenem is 4 µg/mL; with meropenem it was 2 µg/mL; with metronidazole, 0.25 µg/mL.

“Clostridioides difficile PCR ribotype 161 isolate #224 (European region: East, country: Romania, isolate source: Human, ribotype: 161)”: the minimum inhibitory concentration in the experiment with linezolid is 2 µg/mL; in the experiment with clindamycin it was 16 µg/mL; with fidaxomicin, 0.03 µg/mL; with tigecycline, 0.06 µg/mL; in the experiment with vancomycin, 2 µg/mL; with rifampicin, < 0.001 µg/mL. Besides, the minimum inhibitory concentration with imipenem worked out at 4 µg/mL; in the experiment with meropenem it was 2 µg/mL; with metronidazole, 0.25 µg/mL.

As to “Clostridioides difficile PCR ribotype 163 isolate #225 (European region: South, country: Spain, isolate source: Human, ribotype: 163)”, the minimum inhibitory concentration with linezolid was 2 µg/mL; with clindamycin, 2 µg/mL; in the experiment with fidaxomicin, 0.03 µg/mL; with tigecycline, 0.06 µg/mL; in the experiment with vancomycin it was 0.5 µg/mL; with rifampicin it was < 0.001 µg/mL. Moreover, the results for the minimum inhibitory concentration with imipenem, in the experiment with meropenem and with metronidazole were 4 µg/mL, 2 µg/mL and 0.25 µg/mL, respectively.

As to “Clostridioides difficile PCR ribotype 174 isolate #397 (European region: East, country: Romania, isolate source: Animal, ribotype: 174)”, the minimum inhibitory concentration was 2 µg/mL with linezolid; 16 µg/mL with clindamycin; 0.06 µg/mL with fidaxomicin; < 0.03 µg/mL with tigecycline; 1 µg/mL with vancomycin; < 0.001 µg/mL in the experiment with rifampicin. In addition, the values for the minimum inhibitory concentration with imipenem, with meropenem and with metronidazole were 2 µg/mL, 4 µg/mL and < 0.125 µg/mL, respectively.

In the case of “Clostridioides difficile PCR ribotype 176 isolate #227 (European region: East, country: Romania, isolate source: Human, ribotype: 176)”, the minimum inhibitory concentration is 2 µg/mL in the experiment with linezolid; 4 µg/mL in the experiment with clindamycin; 0.03 µg/mL with fidaxomicin; < 0.03 µg/mL in the experiment with tigecycline; 0.5 µg/mL with vancomycin; > 32 µg/mL with rifampicin. Also, the minimum inhibitory concentration came to 8 µg/mL with imipenem, 4 µg/mL with meropenem and 1 µg/mL in the experiment with metronidazole.

Regarding “Clostridioides difficile PCR ribotype 176 isolate #228 (European region: East, country: Slovakia, isolate source: Human, ribotype: 176)”, the minimum inhibitory concentration is 2 µg/mL with linezolid; > 128 µg/mL in the experiment with clindamycin; 0.06 µg/mL with fidaxomicin; < 0.03 µg/mL in the experiment with tigecycline; 0.5 µg/mL with vancomycin; < 0.001 µg/mL in the experiment with rifampicin. In addition, the minimum inhibitory concentration was 8 µg/mL with imipenem, 2 µg/mL with meropenem and 2 µg/mL in the experiment with metronidazole.

For the test system “Clostridioides difficile PCR ribotype 181 isolate #229 (European region: East, country: Romania, isolate source: Human, ribotype: 181)”, the minimum inhibitory concentration is 1 µg/mL with linezolid; 2 µg/mL with clindamycin; 0.03 µg/mL with fidaxomicin; < 0.03 µg/mL in the experiment with tigecycline; 0.5 µg/mL with vancomycin; > 32 µg/mL with rifampicin. The figures for the minimum inhibitory concentration in the experiment with imipenem, with meropenem and with metronidazole were 4 µg/mL, 4 µg/mL and 1 µg/mL, respectively.

For “Clostridioides difficile PCR ribotype 181 isolate #230 (European region: East, country: Romania, isolate source: Human, ribotype: 181)”, the minimum inhibitory concentration with linezolid is 1 µg/mL; with clindamycin, 16 µg/mL; in the experiment with fidaxomicin, 0.03 µg/mL; with tigecycline, < 0.03 µg/mL; in the experiment with vancomycin, 0.5 µg/mL; with rifampicin, > 32 µg/mL. Further, the minimum inhibitory concentration was 8 µg/mL with imipenem, 4 µg/mL with meropenem and 1 µg/mL in the experiment with metronidazole.

For the test system “Clostridioides difficile PCR ribotype 181 isolate #231 (European region: East, country: Romania, isolate source: Human, ribotype: 181)”, the minimum inhibitory concentration was 2 µg/mL with linezolid; 32 µg/mL with clindamycin; 0.03 µg/mL in the experiment with fidaxomicin; < 0.03 µg/mL in the experiment with tigecycline; 0.5 µg/mL in the experiment with vancomycin; < 0.001 µg/mL with rifampicin. Moreover, the minimum inhibitory concentration was found to be 4 µg/mL with imipenem, 4 µg/mL in the experiment with meropenem and 1 µg/mL in the experiment with metronidazole.

For “Clostridioides difficile PCR ribotype 181 isolate #232 (European region: East, country: Romania, isolate source: Human, ribotype: 181)”, the minimum inhibitory concentration was 2 µg/mL with linezolid; 8 µg/mL with clindamycin; 0.03 µg/mL with fidaxomicin; < 0.03 µg/mL with tigecycline; 0.5 µg/mL with vancomycin; > 32 µg/mL in the experiment with rifampicin. Also, the minimum inhibitory concentration with imipenem amounted to 4 µg/mL; with meropenem, 4 µg/mL; in the experiment with metronidazole, 2 µg/mL.

On to “Clostridioides difficile PCR ribotype 181 isolate #233 (European region: East, country: Romania, isolate source: Human, ribotype: 181)”, for which the minimum inhibitory concentration with linezolid is 2 µg/mL; with clindamycin it was 1 µg/mL; in the experiment with fidaxomicin, 0.03 µg/mL; in the experiment with tigecycline, < 0.03 µg/mL; in the experiment with vancomycin it was 0.5 µg/mL; in the experiment with rifampicin it was > 32 µg/mL. Moreover, the minimum inhibitory concentration was 8 µg/mL with imipenem, 4 µg/mL with meropenem and 1 µg/mL with metronidazole.

For the test system “Clostridioides difficile PCR ribotype 181 isolate #234 (European region: East, country: Romania, isolate source: Human, ribotype: 181)”, the minimum inhibitory concentration with linezolid is 2 µg/mL; with clindamycin, 0.25 µg/mL; with fidaxomicin, 0.03 µg/mL; with tigecycline it was < 0.03 µg/mL; with vancomycin, 0.5 µg/mL; with rifampicin, > 32 µg/mL. Moreover, the values for the minimum inhibitory concentration with imipenem, with meropenem and with metronidazole were 4 µg/mL, 4 µg/mL and 1 µg/mL, respectively.

On to “Clostridioides difficile PCR ribotype 181 isolate #235 (European region: East, country: Romania, isolate source: Human, ribotype: 181)”, for which the minimum inhibitory concentration is 1 µg/mL with linezolid; 2 µg/mL in the experiment with clindamycin; 0.03 µg/mL with fidaxomicin; < 0.03 µg/mL with tigecycline; 0.5 µg/mL with vancomycin; > 32 µg/mL in the experiment with rifampicin. For the same test system, the figures for the minimum inhibitory concentration in the experiment with imipenem, with meropenem and with metronidazole were 4 µg/mL, 4 µg/mL and 0.5 µg/mL, respectively.

For the origin of these results see the supplement of paper PMC11264405.
